Experimental data reported in patent US20060004088A1, “Furan derivatives for preventing and curing osteoporosis and pharmaceutical compositions containing the same” (OCT INC., priority 2002, published 2006).
Some entries share one result that the patent states for a list of compounds. Some ranges recur; such a range may be that of the whole group of compounds.

Tested on: osteoclast pregenitor cells
Assay: Inhibition rates of furan derivatives versus osteoclast formation (TRAP staining)
Assay type: cell-based, mice
Settings: 0.1 μM, TRAP-positive multinucleated cells, untreated control set as 100%
Description: First, bone marrow cells were isolated, as follow. After sacrificing 7-9 week female mice by cervical dislocation, femur and tibia were excised aseptically while removing attached soft tissues. After cutting both ends of long bones, 1 ml of an enzyme solution, containing 0.1% collagenase (Gibco), 0.05% trypsin and 0.5 mM EDTA (Gibco), was injected to the bone marrow cavity at one end using a syringe with a 26-guage needle, and bone marrow was then collected. After shaking the recovered bone marrow for 30 min, bone marrow cells were collected, and cultured in α-minimum essential medium (α-MEM) supplemented with 10% FBS for 24 hrs. Then, non-adherent cells were collected, which are osteoclast pregenitors, aliquotted onto culture plates at a density of 2×10^5 cells per well, and cultured for 8 days in α-MEM supplemented with 20 ng/ml of macrophage-colony stimulating factor (M-CSF, Peprotech, USA) and 30 ng/ml RANKL (Peprotech, USA). During the 8 days of culturing, the cells were treated with the Compound 1. Thereafter, osteoclast formation was investigated by fixing the cultured cells and then carrying out TRAP staining, as described in the following Experimental Example 2.2. In addition, resorption activity of osteoclasts was investigated by measuring the absorption area after removing osteoclasts in cultures in calcium phosphate-coated plates, as described in Experimental Example 2.3, below.
After cell culture, the adherent cells were washed with PBS, and TRAP staining was performed, as follows. After being fixed with citrate-acetate-formaldehyde for 5 min, the cells were incubated for 1 hr in acetate buffer (prewarmed at 37° C., pH 5.0) containing naphthol AS-BI phosphate, fast Garnet GBC and 7 mM tartrate buffer (pH 5.0). TRAP-positive multinucleated cells having 3 or more nuclei were considered as osteoclasts.
Osteoclast pregenitor cells were isolated, and their differentiation to mature osteoclasts was induced, according to the same method as in the Experimental Example 2-1, while treated with each of the furan derivatives of the present invention. According to the same method as in the Experimental Example 2-2, TRAP staining performed, and TRAP-positive multinucleated cells were counted. An inhibition rate of each furan derivative against osteoclast formation was expressed as percentage, wherein the number of stained cells in a control not treated the furan derivative was arbitrarily set as 100% (Tables 14 to 16).

O=C(c1ccc(COc2ccccc2Br)o1)N1CCCCCC1 [Compound 128]
Inhibition rate against osteoclast formation, %: 4-21%

Cc1ccc(OCc2ccc(C(=O)Nc3ccc(F)cc3)o2)c([N+](=O)[O-])c1 [Compound 147]
Inhibition rate against osteoclast formation, %: 4-21%

COC(=O)c1ccc(C)c(NC(=O)c2ccc(COc3ccc(I)cc3)o2)c1 [Compound 152]
Inhibition rate against osteoclast formation, %: 4-21%

O=C(Nc1cccc(Cl)c1Cl)c1ccc(COc2ccccc2[N+](=O)[O-])o1 [Compound 156]
Inhibition rate against osteoclast formation, %: 4-21%

COc1ccccc1NC(=O)c1ccc(COc2cc(C)ccc2C)o1 [Compound 157]
Inhibition rate against osteoclast formation, %: 4-21%
